From publication PMC3522796 (Cancer letters, 2012)

Settings: room temperature, 24 h

Solubility in different Miglyols (Miglyol 808, 810, 812, 818): 3.2–3.5 µg/mg Miglyol | Solubility in Miglyol 812: 3.2 ± 0.1 µg/mg Miglyol
SMILES: CC(=O)O[C@H]1C(=O)[C@@]2(C)[C@H]([C@H](OC(=O)c3ccccc3)[C@]3(O)C[C@H](OC(=O)[C@H](O)[C@@H](NC(=O)c4ccccc4)c4ccccc4)C(C)=C1C3(C)C)[C@]1(OC(C)=O)CO[C@@H]1C[C@@H]2O [PX, Paclitaxel]
